# Test system: male mice (ICR)
# Experiment: Muscle relaxation activity by grip strength (forelimbs)
# Assay type: in vivo
# Conditions: intraperitoneal, 50 mg/kg administered
# Description: For testing, male mice (ICR) were purchased from ORIENT BIO INC. (Korea), divided into several groups with 6 mice in each group, and were adapted for 4-5 days. The mice having the weight ranging from 19 g to 26 g were employed for the test. The pharmacological effect of the test compounds on muscle relaxation was evaluated by Rotarod test, grip strength test, and muscular force (wire hang) test. All mice were adapted to the test environment at one hour before starting the tests. The pharmacological effects of all the test compounds were evaluated by administration through peritoneal cavity of the mice (10 ul/g, bw).
# A grip strength test using the test animals' forelimbs was performed using an instrument equipped with triangle ring and designed so as to easily grip with the forelimbs of experimental animals, manufactured from Ugo Basile Inc. (Ugo Basile, Model 47106, Italy). The test was conducted before and after administration of the compounds to evaluate the effects thereof. […] The mouse was made to grip the rod with its forelimbs, and its tail was pulled, where the force at which the mouse detached from the rod was recorded. The instrument indicated the force in grams. All of the mice were given 3 opportunities for test, and the 3 highest values among the test opportunities were selected and the mean value was used as the test result. This experimentation was conducted according to the method described in the reference, ‘Nevins et al. (1993) Quantitative grip strength assessment as a means of evaluating muscle relaxation in mice. Psychopharmacol. 110: 92-96’.
# The results of muscle relaxation activity of the phenyl alkyl carbamate derivative compounds measured in above Experimental Examples 1 to 3 are shown in following Table 3.
row,SMILES,Grip strength: peak time of effect [h]
1,"COCO[C@@H](c1ccccc1F)[C@H](C)OC(N)=O [Example 12, 1-(2-fluorophenyl)-(S)-1-methoxymethoxypropyl-(S)-2-carbamate]",0.5
2,"CC[C@H](OC(N)=O)[C@@H](OCOC)c1ccccc1I [Example 28, 1-(2-iodophenyl)-(S)-1-methoxymethoxybutyl-(S)-2-carbamate]",1
3,"COCO[C@@H](c1c(Cl)cccc1Cl)[C@H](C)OC(N)=O [Example 64, 1-(2,6-dichlorophenyl)-(S)-1-methoxymethoxypropyl-(S)-2-carbamate]",0.5
4,"COCO[C@H](c1ccccc1I)[C@@H](C)OC(N)=O [Example 91, 1-(2-iodophenyl)-(R)-1-methoxymethoxypropyl-(R)-2-carbamate]",0.5
5,"COCO[C@H](c1cccc(I)c1)[C@@H](C)OC(N)=O [Example 95, 1-(3-iodophenyl)-(R)-1-methoxymethoxypropyl-(R)-2-carbamate]",0.5
6,"COCO[C@H](c1c(Cl)cccc1Cl)[C@@H](C)OC(N)=O [Example 107, 1-(2,6-dichlorophenyl)-(R)-1-methoxymethoxypropyl-(R)-2-carbamate]",1
7,"CO[C@@H](c1ccccc1I)[C@H](C)OC(=O)NC(C)C [Example 146, 1-(2-iodophenyl)-(S)-1-methoxypropyl-(S)-2-isopropylcarbamate]",0.5
8,"CC[C@H](OC(N)=O)[C@@H](OC)c1ccccc1I [Example 151, 1-(2-iodophenyl)-(S)-1-methoxybutyl-(S)-2-carbamate]",0.5
9,"CO[C@@H](c1ccccc1I)[C@@H](OC(N)=O)C(C)C [Example 159, 1-(2-iodophenyl)-(S)-1-methoxy-3-methyl-butyl-(S)-2-carbamate]",0.5
10,"CC(C)[C@H](OC(N)=O)[C@@H](OC(N)=O)c1ccccc1F [Example 257, 1-(2-fluorophenyl)-(S)-1-carbamoyloxy-3-methyl-butyl-(S)-2-carbamate]",0.5
11,"CCCC[C@H](OC(N)=O)[C@@H](OC(N)=O)c1ccccc1F [Example 258, 1-(2-fluorophenyl)-(S)-1-carbamoyloxyhexyl-(S)-2-carbamate]",0.5
12,"CC(C)[C@H](OC(N)=O)[C@@H](OC(N)=O)c1ccccc1I [Example 261, 1-(2-iodophenyl)-(S)-1-carbamoyloxy-3-methyl-butyl-(S)-2-carbamate]",0.5
13,"COCO[C@H](COC(N)=O)c1ccccc1I [Example 278, 1-(2-iodophenyl)-(S)-1-methoxymethoxyethyl-2-carbamate]",0.5

# Source: patent publication US9029589B2, “Phenyl alkyl carbamate derivative compound and pharmaceutical composition containing the same” (Bio-Pharm Solutions Co., Ltd., priority 2011, dated 2015)
